According to article PMC7145602:

How the values were obtained:
[1] = molecular target: T1, Flag-Regnase-1 (mouse) (UniProt Q5D1E7); assay: co-IP; anti-Flag antibody on protein G magnetic beads, lysates of transfected HeLa cells (0.1% NP-40, 150 mM NaCl, 10 mM Tris-HCl pH 8.0), 3 h at 4°C; Flag-Regnase-1 precipitated, UPF1 constructs blotted; λ protein phosphatase treatment of lysates and SMG1 knockdown are said to reduce or inhibit the association
T1 sequence: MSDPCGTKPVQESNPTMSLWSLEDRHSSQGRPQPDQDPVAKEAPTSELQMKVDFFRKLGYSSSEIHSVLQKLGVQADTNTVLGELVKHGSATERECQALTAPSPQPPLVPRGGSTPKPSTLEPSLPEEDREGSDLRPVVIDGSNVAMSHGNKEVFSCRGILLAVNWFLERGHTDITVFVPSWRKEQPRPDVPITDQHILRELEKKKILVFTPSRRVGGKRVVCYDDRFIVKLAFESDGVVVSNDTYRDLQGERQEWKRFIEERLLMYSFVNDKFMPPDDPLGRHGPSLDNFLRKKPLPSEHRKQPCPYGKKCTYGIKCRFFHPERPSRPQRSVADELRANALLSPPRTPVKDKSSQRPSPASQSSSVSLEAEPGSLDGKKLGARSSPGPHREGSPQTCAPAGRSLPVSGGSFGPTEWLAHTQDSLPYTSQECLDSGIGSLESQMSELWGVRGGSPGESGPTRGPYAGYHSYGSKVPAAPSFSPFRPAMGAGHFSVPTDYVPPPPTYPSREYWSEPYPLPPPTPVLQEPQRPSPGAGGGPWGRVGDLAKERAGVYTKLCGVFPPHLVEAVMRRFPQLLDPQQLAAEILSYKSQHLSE

[2] = molecular target: T2, Flag-Regnase-1 K257A/R258A (KRAA) mutant (mouse) (UniProt Q5D1E7); assay: as above
T2 sequence: T1 sequence with K257A, R258A

[3] = molecular target: T3, GST-Regnase-1 (mouse) (UniProt Q5D1E7); assay: pull-down; GST-Regnase-1 incubated with HA-UPF1 in 0.1% NP-40, 10 mM Tris-HCl pH 8.0, 150 mM NaCl, 5 mM Mg(OAc)2, 5 mM ZnCl2, 1 mM DTT, 10% glycerol, 1 h at r.t.; Glutathione Sepharose 1 h at 4°C; western blot; both purified
T3 sequence: T1 sequence

[4] = molecular target: T4, GFP-UPF1-(6–429)-T28E (human) (UniProt Q92900); assay: co-IP; anti-GFP antibody on protein G magnetic beads, lysates of transfected HeLa cells (0.1% NP-40, 150 mM NaCl, 10 mM Tris-HCl pH 8.0), 3 h at 4°C; GFP-UPF1 fragments precipitated
T4 sequence: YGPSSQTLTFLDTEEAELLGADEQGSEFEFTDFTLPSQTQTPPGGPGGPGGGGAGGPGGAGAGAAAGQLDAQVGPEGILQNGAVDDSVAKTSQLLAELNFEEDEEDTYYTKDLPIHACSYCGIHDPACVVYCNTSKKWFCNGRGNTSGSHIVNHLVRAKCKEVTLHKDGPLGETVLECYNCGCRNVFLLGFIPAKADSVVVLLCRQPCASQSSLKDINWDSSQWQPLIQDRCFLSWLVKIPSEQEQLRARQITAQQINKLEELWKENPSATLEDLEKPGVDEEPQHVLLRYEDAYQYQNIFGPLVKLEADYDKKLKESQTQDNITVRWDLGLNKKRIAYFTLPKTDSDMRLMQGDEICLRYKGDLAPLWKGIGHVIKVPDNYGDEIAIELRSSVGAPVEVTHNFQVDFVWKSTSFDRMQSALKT

[5] = molecular target: T5, SBP-GFP-UPF1-(610–914) (pEFh-SBP-GFP-hUPF1-(610–914)) (human) (UniProt Q92900); assay: as above
T5 sequence: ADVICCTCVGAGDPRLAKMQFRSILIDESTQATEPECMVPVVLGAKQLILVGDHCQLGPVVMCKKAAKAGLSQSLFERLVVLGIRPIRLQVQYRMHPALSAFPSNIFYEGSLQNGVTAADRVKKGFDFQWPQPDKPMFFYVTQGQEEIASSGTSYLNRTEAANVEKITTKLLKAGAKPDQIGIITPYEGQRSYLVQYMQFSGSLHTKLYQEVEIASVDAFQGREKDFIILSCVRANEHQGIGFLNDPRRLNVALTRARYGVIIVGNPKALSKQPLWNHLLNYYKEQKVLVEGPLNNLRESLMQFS

HA-UPF1-T28A (pSR-HA-hUPF1-T28A) (from UniProt Q92900-2)
binding [1]: no binding

HA-UPF1-T28E (pSR-HA-hUPF1-T28E) (from UniProt Q92900-2)
binding [2]: no binding
binding [1]: binds
binding [3]: binds

Regnase-1-mCherry deletion mutant with the RNase domain (130–300) (from UniProt Q5D1E7) (domain or fragment)
binding [4]: binds

Regnase-1-mCherry deletion mutant with the structurally disordered region (90–130) (from UniProt Q5D1E7) (domain or fragment)
binding [5]: binds

Changes are numbered by the printed parent chain. Results are given in words; binding and its absence hold for the method and conditions named. For part of these data: A result given as binding can be weak or reduced; the word gives no strength. Sequences can lack the tags named with a protein. For part of these data: Binding seen in cells or lysates may run through a third protein.
